Laboratory results reported in patent US20110319338A1, “PEPTIDES THAT BIND EUKARYOTIC TRANSLATION INITIATION FACTOR 4E” (The Board of Regents of the University of Texas System, priority 2008, published 2011).
No constants are given. Whether binding was seen depends on the method and setting. Binding seen in cells or lysates may run through a third protein. Some results given as binding are weak or reduced against the parent protein; the word gives no strength.

By UniProt entry, the sequences of proteins in these tests, tags left out. Residues count along the entry.
UniProt P06730, residues 2-217: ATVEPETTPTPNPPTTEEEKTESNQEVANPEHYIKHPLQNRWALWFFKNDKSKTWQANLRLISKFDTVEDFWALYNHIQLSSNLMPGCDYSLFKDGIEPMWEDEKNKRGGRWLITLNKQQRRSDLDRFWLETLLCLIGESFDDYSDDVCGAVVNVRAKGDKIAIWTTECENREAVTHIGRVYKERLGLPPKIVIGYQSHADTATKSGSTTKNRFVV

Key:
[1] = target: eukaryotic translation initiation factor 4E (UniProt P06730); test: streptavidin-agarose pull-down from OVCAR-3 lysate, eIF4E Western blot
[2] = target: eukaryotic translation initiation factor 4E (UniProt P06730); test: streptavidin-agarose pull-down of biotinylated peptide (3 micromoles per liter) from OVCAR-3 lysate, eIF4E Western blot

- binding [1]: binds
- binding [2]: binds
Binder: GTRIIYDRKFLLDRRNSPMA (peptide, UniProt Q13542 49-68, looked up, biotinylated (site not stated)) [4EBP2-WT peptide containing the corresponding region (residues 49-68) of 4EBP2]
